Consider six molecules from publication PMC9140312.

Like-named read-outs stand apart in the source and are kept apart here. These are yes or no findings as the source states them, for the method shown. Binding seen in cells or lysates may run through a third protein. A yes stands for co-enrichment or nearness to the bait. Other partners may have been found. For some of these results: A no says only that the protein was not detected with the bait.

Assay in all cases: affinity purification with mass spectrometry; purified Dlar Ig1-Ig2, Dlar FN4-FN5 or sDlar attached to NHS-Activated Sepharose, incubated with pre-cleared WT L3 larval lysate; washed three times with lysis buffer minus detergent; LC-MS/MS; hits enriched at least 10-fold over control; only the target purified
The target in experiment [1] is T1, Dlar FN4-FN5 (residues 608-812) (Drosophila) (UniProt P16621).
T1 sequence: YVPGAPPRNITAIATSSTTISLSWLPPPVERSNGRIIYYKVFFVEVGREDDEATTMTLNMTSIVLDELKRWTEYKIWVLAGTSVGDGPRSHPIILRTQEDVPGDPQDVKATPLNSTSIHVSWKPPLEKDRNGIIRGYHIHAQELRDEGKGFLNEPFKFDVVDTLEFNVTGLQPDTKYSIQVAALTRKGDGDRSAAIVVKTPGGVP

In experiment [2] the target is T2, sDlar, the entire ectodomain of soluble Dlar (Drosophila) (UniProt P16621).
T2 sequence: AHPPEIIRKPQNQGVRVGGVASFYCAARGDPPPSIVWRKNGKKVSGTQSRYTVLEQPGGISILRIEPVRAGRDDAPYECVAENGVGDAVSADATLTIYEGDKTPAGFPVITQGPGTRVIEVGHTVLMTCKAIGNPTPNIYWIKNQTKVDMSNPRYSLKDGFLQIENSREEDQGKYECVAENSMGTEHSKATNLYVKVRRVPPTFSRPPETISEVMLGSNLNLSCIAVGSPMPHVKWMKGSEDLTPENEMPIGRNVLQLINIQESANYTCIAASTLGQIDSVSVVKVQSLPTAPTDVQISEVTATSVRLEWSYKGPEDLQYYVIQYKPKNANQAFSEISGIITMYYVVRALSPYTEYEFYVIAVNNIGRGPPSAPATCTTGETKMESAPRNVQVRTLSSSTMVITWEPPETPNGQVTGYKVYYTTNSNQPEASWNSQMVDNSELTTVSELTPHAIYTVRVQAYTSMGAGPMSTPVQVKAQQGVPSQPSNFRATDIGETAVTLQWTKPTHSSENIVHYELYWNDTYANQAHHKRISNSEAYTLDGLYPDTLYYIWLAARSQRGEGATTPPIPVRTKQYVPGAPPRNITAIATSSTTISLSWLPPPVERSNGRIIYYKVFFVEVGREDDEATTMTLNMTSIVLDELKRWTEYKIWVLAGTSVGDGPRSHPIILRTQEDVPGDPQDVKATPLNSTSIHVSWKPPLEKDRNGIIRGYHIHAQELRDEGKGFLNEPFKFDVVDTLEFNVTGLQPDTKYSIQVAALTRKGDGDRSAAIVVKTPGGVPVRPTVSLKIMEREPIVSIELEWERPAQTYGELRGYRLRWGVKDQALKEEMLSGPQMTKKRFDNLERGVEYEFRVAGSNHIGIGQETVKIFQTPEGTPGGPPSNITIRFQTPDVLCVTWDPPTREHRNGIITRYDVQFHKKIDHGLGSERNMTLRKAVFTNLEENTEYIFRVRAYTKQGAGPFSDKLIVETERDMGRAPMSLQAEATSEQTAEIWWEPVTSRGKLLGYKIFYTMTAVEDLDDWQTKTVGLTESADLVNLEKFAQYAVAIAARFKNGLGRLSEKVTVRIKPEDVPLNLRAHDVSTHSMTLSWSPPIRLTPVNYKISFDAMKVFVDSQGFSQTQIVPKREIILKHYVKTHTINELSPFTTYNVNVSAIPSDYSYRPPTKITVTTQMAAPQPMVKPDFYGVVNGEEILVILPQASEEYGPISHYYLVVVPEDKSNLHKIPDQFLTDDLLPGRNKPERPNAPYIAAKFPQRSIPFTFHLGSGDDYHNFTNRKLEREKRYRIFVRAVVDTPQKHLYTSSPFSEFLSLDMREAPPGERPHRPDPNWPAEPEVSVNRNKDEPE

The target in experiment [3] is T3, Dlar Ig1-Ig2 (residues 32-237) (Drosophila) (UniProt P16621).
T3 sequence: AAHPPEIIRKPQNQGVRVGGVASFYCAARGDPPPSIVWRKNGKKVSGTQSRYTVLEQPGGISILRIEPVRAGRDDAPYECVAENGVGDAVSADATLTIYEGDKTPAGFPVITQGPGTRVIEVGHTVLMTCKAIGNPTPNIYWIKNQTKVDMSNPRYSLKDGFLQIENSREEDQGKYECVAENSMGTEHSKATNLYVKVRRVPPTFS

Experiment [4] addresses T3, Dlar Ig1-Ig2 (residues 32-237) (Drosophila). The source holds these as a separate data set.
Experiment [5] addresses T1, Dlar FN4-FN5 (residues 608-812) (Drosophila). This is another data set of the same source.
The target of experiment [6] is T2, sDlar, the entire ectodomain of soluble Dlar (Drosophila). This is another data set of the same source.

Regarding “Drosophila Lar (Dlar), endogenous (from UniProt P16621 33-2029) (receptor)”, the binding result in experiment [1], in experiment [2] and in experiment [3] was “binds” in each case.
Regarding “Secreted Wg-interacting molecule (Swim) (Drosophila (endogenous in L3 larvae))”, the binding result in experiment [3] is listed as “binds”.

B1: Division abnormally delayed (Dally) (protein, UniProt Q24114 27-602)
chain: KHLDLDGIHHHQHHLHSATTHHRRRLQRDSRAKDAVGGSTHQCDAVKSYFESIDIKSSGTYSEKGAICGGNCCNNATELELRDKAAGMFEQLLHHHTSSLRGVLETNAKQFQSHVLELAQISENMTHSLFSKVYTRMVPSSRMMIHQLYTEIMNHLIYTSNYTNSNGQLGRRGIGSVQSNLEEAVRHFFVQLFPVAYHQMVHLSKNNLGDLHEDYVNCLQHNFDEMHPFGDIPQQVQSNLGKSVHMSNVFMNALLQAAEVLSEADALYGEQLTDTCKLHLLKMHYCPNCNGHHSSSRSETKLCYGYCKNVMRGCSAEYAGLLDSPWSGVVDSLNNLVTTHILSDTGIINVIKHLQTYFSEAIMAAMHNGPELEKKVKKTCGTPSLTPYSSGEPDARPPPHKNNVKWATDPDPGMVLFLSTIDKSKEFYTTIVDNFCDEQQHSRDDHSCWSGDRFGDYTQLLINPGTDSQRYNPEVPFNAKAQTGKLNELVDKLFKIRKSIGAAAPSNSIQATHDIQNDMGEGSGGGEGQIGDDEEEYGGAHGSGDGSGDGPHTPIEESEGTTTNEVESRDSGKTSG
Consider B1, for which, in experiment [4], the binding result is given as “binds”.

B2: Glutactin (Glt), endogenous (protein, UniProt P33438 18-1026)
chain: HSVGLRPDYNDYSDEDTRRDWLPEPLKPVPWQSETRYAQPQEAVVQAPEVGQILGISGHKTIANRPVNAFLGIRYGTVGGGLARFQAAQPIGYQGRVNATVQSPNCAQFPELDRLRLSESRGENVDDCLTLDIYAPEGANQLPVLVFVHGEMLFDGGSEEAQPDYVLEKDVLLVSINYRLAPFGFLSALTDELPGNVALSDLQLALEWLQRNVVHFGGNAGQVTLVGQAGGATLAHALSLSGRAGNLFQQLILQSGTALNPYLIDNQPLDTLSTFARLARCPPPSINPSAQGLKPLYDCLARLPTSQLVAAFEQLLLQNEHLGLTQLGGFKLVVGDPLGFLPSHPASLATNSSLALPMIIGATKDASAFIVSRIYDQLARLQSRNVSDYIDVVLRHTAPPSEHRLWKQWALREIFTPIQEQTASLQTVAPGLLELSNYILYRAPVINSISQSYRSVPAYLYTFDYRGEHHRFGHLSNPLPFGVDASLSDDSVYLFPYPPEASRLNPLDRSLSRALVTMWVNFATTGVPNPSSGVWPQATSEYGPFLRFTNNQQSPLELDPHFGEGIYLPNYRVIYKPTTNFSPPITTTTTTTTTTTTTSRPYAYNPYANWQNRPSQQHPNWHPADPEYVRAQEARQQEFIREREQRRREQQLRDQQRYPQQEPREQQDERIRQQREQEERLRQQREQEERLRQQRELEERIRQQQEREQYEREQQEREQREREELERQQREREQQQPEQQPEYNPEPVNPWGYPVQEPQPDDNPEDGRLPYPSYEQYGPEGNENLPETDANRNFSEEDREQQQQEQLRREQQEQQEREYQLQLEREQQEREQQERGQQEPGPEEYPSYEEYSRALQEKNAERDRIYAEEQERERQQQETLLQENQQHPEQSLPEEQPTHPNYEAYDGDRSYAEEQEREQQRRDQVEQEREEQPDEDQGEEYERSPDEEEAAEQDVLKVEDFPSYEAYLEAATKLREEQEEQEKLEEERYRAQQEEEDRIQAERERNSRN
With B2, the binding entry in experiment [5], in experiment [6] and in experiment [4] was “no binding” each time.

B3: Syndecan (Sdc) (protein, UniProt P49415 29-399)
chain: QDQKSVKPSAAAPSAAASRPHDEIYIDDDSIEGSGGRGGIHEDLEKDPDYSGSGFGPDDEDAEPDQHSHSSHNTRISQSSNSGINTAHTPTQTSSTIPTTSTSTPMPTTTPTATTPASTTTAAATQISSFANSSSTTTTTLAPTIPAEPQQPLFPPFDKDLDTESSGDGIDADAEDDDEDDGDDKDYDYNKELDKEIDIDGPEPGHLPPVVHHNTVETGHIPTTDEIDVDGGDEDDNGDSDIDGPRIGGNDGDITERGPGAGGSNVHELDPNTNVNSQPSDTKGIDHRPNGNEVVIMSEDDRTSSFFSQPGILAAVIGGAVVGLLCAILVVMFIVYRMRKKDEGSYALDEPKRSPANNSYAKNANNREFYA
Consider B3, for which, in experiment [4], the binding entry is given as “binds”.

B4: Wnt/Wingless (Wg) (ligand, UniProt P09615 18-468)
chain: GSSLSQVEGKQKSGRGRGSMWWGIAKVGEPNNITPIMYMDPAIHSTLRRKQRRLVRDNPGVLGALVKGANLAISECQHQFRNRRWNCSTRNFSRGKNLFGKIVDRGCRETSFIYAITSAAVTHSIARACSEGTIESCTCDYSHQSRSPQANHQAGSVAGVRDWEWGGCSDNIGFGFKFSREFVDTGERGRNLREKMNLHNNEAGRAHVQAEMRQECKCHGMSGSCTVKTCWMRLANFRVIGDNLKARFDGATRVQVTNSLRATNALAPVSPNAAGSNSVGSNGLIIPQSGLVYGEEEERMLNDHMPDILLENSHPISKIHHPNMPSPNSLPQAGQRGGRNGRRQGRKHNRYHFQLNPHNPEHKPPGSKDLVYLEPSPSFCEKNLRQGILGTHGRQCNETSLGVDGCGLMCCGRGYRRDEVVVVERCACTFHWCCEVKCKLCRTKKVIYTCL
As to B4, the binding result in experiment [4] is recorded as “binds”.
